Measured values published in paper PMC10164564.
Results are given in words; binding and its absence hold for the method and conditions named. In cells and extracts the contact can be indirect. These calls come from enrichment with a bait or labelling near it, and not all partners need be listed. No binding means not detected with the bait. Sequences can lack the tags named with a protein.

Chains of the proteins cited; added tags and fusions are not shown.
UniProt Q9Y3B2: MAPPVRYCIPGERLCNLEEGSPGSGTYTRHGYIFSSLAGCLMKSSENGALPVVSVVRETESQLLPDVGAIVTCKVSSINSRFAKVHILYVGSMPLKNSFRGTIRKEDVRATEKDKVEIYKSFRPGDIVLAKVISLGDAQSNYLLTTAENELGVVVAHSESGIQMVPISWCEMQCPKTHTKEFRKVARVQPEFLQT
UniProt Q13868: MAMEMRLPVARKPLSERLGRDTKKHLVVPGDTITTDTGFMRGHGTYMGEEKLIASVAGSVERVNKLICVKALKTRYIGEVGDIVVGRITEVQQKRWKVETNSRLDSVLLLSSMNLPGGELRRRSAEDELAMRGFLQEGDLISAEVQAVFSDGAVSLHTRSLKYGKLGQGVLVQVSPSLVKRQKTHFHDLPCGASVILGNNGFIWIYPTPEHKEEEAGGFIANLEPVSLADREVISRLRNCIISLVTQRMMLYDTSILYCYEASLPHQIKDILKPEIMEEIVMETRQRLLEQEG
UniProt Q9NQT4: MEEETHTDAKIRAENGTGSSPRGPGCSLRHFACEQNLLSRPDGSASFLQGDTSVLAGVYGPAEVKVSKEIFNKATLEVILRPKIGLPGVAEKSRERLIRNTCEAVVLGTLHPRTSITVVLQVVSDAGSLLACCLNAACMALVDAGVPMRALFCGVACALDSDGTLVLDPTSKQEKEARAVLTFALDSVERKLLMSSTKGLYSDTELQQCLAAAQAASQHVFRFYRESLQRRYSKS
UniProt Q5RKV6: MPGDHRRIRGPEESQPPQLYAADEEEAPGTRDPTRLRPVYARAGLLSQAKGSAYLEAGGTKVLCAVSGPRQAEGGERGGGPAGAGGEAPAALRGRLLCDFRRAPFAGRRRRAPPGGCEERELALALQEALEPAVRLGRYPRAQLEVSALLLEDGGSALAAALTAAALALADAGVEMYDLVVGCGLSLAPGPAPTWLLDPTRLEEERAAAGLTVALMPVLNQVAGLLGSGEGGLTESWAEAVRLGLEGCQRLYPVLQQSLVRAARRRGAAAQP
UniProt Q15024: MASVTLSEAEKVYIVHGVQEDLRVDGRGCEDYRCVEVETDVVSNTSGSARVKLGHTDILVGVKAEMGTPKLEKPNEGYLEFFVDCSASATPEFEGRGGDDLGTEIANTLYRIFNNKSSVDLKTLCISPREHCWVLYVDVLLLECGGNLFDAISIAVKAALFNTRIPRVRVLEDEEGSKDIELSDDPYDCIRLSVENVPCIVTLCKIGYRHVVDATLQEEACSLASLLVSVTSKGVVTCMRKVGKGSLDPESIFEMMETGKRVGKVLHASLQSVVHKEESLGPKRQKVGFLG
UniProt Q06265: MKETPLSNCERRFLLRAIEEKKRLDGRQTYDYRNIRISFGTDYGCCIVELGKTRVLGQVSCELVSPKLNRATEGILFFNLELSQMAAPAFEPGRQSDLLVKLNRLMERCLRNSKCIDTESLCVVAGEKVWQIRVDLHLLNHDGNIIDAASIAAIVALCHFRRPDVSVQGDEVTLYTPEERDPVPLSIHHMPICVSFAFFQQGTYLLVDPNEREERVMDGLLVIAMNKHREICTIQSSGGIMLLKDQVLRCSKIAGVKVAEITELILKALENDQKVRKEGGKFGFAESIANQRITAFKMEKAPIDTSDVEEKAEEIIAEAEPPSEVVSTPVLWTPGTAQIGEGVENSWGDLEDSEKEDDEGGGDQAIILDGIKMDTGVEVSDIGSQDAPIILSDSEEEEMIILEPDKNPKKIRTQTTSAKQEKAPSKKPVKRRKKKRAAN

Biological target: T1, Flag-tagged full-length USP36 (wild type) (human) (UniProt Q9P275)
T1 sequence: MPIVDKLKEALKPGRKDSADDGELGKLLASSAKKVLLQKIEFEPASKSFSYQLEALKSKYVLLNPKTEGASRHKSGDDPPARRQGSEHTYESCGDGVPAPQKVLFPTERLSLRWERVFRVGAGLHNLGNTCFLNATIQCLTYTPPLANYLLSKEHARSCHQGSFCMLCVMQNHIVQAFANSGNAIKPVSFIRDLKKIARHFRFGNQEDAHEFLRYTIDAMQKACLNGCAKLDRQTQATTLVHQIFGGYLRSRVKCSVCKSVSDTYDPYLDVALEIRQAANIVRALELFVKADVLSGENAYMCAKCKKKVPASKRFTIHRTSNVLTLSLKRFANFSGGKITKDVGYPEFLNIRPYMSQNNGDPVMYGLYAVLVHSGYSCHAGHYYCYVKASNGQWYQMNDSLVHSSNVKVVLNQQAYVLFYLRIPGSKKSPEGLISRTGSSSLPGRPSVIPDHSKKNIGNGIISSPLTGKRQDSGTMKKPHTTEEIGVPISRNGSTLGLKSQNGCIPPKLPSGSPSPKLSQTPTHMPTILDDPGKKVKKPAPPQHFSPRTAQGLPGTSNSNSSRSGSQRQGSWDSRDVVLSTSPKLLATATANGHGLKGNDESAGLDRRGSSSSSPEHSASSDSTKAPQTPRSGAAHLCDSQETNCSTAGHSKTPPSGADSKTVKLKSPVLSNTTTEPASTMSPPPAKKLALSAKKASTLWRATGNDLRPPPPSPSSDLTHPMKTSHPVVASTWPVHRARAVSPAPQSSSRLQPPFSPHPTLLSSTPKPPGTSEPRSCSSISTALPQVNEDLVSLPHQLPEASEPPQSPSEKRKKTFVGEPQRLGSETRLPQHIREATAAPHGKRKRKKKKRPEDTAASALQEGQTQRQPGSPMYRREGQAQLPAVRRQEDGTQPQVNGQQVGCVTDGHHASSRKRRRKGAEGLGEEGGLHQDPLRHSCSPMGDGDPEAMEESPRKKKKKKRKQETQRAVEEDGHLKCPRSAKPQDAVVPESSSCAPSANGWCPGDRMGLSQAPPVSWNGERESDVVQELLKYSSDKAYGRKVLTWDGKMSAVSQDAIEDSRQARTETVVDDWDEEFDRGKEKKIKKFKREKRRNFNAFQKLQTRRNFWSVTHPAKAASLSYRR
Experiment: affinity purification with mass spectrometry; 293 cells stably expressing Flag-USP36 or control; NP-40 lysis buffer; anti-Flag (M2) agarose, 4°C 4 h; elution with Flag peptides; MS/MS

## EXOSC1 (from UniProt Q9Y3B2 1-195)
  binding: binds

## EXOSC2 (from UniProt Q13868 1-293)
  binding: binds

## EXOSC5 (from UniProt Q9NQT4 1-235)
  binding: binds

## EXOSC6 (from UniProt Q5RKV6 1-272)
  binding: binds

## EXOSC7 (from UniProt Q15024 1-291)
  binding: binds

## EXOSC9 (from UniProt Q06265 1-439)
  binding: binds

B1: endogenous EXOSC10 (enzyme, UniProt Q01780 1-885)
chain: MAPPSTREPRVLSATSATKSDGEMVLPGFPDADSFVKFALGSVVAVTKASGGLPQFGDEYDFYRSFPGFQAFCETQGDRLLQCMSRVMQYHGCRSNIKDRSKVTELEDKFDLLVDANDVILERVGILLDEASGVNKNQQPVLPAGLQVPKTVVSSWNRKAAEYGKKAKSETFRLLHAKNIIRPQLKFREKIDNSNTPFLPKIFIKPNAQKPLPQALSKERRERPQDRPEDLDVPPALADFIHQQRTQQVEQDMFAHPYQYELNHFTPADAVLQKPQPQLYRPIEETPCHFISSLDELVELNEKLLNCQEFAVDLEHHSYRSFLGLTCLMQISTRTEDFIIDTLELRSDMYILNESLTDPAIVKVFHGADSDIEWLQKDFGLYVVNMFDTHQAARLLNLGRHSLDHLLKLYCNVDSNKQYQLADWRIRPLPEEMLSYARDDTHYLLYIYDKMRLEMWERGNGQPVQLQVVWQRSRDICLKKFIKPIFTDESYLELYRKQKKHLNTQQLTAFQLLFAWRDKTARREDESYGYVLPNHMMLKIAEELPKEPQGIIACCNPVPPLVRQQINEMHLLIQQAREMPLLKSEVAAGVKKSGPLPSAERLENVLFGPHDCSHAPPDGYPIIPTSGSVPVQKQASLFPDEKEDNLLGTTCLIATAVITLFNEPSAEDSKKGPLTVAQKKAQNIMESFENPFRMFLPSLGHRAPVSQAAKFDPSTKIYEISNRWKLAQVQVQKDSKEAVKKKAAEQTAAREQAKEACKAAAEQAISVRQQVVLENAAKKRERATSDPRTTEQKQEKKRLKISKKPKDPEPPEKEFTPYDYSQSDFKAFAGNSKSKVSSQFDPNKQTPSGKKCIAAKKIKQSVGNKSMSFPTGKSDRGFRYNWPQR
  binding: binds

B2: UTP18 (protein, UniProt Q9Y5J1 1-556)
chain: MPPERRRRMKLDRRTGAKPKRKPGMRPDWKAGAGPGGPPQKPAPSSQRKPPARPSAAAAAIAVAAAEEERRLRQRNRLRLEEDKPAVERCLEELVFGDVENDEDALLRRLRGPRVQEHEDSGDSEVENEAKGNFPPQKKPVWVDEEDEDEEMVDMMNNRFRKDMMKNASESKLSKDNLKKRLKEEFQHAMGGVPAWAETTKRKTSSDDESEEDEDDLLQRTGNFISTSTSLPRGILKMKNCQHANAERPTVARISSVQFHPGAQIVMVAGLDNAVSLFQVDGKTNPKIQSIYLERFPIFKACFSANGEEVLATSTHSKVLYVYDMLAGKLIPVHQVRGLKEKIVRSFEVSPDGSFLLINGIAGYLHLLAMKTKELIGSMKINGRVAASTFSSDSKKVYASSGDGEVYVWDVNSRKCLNRFVDEGSLYGLSIATSRNGQYVACGSNCGVVNIYNQDSCLQETNPKPIKAIMNLVTGVTSLTFNPTTEILAIASEKMKEAVRLVHLPSCTVFSNFPVIKNKNISHVHTMDFSPRSGYFALGNEKGKALMYRLHHYSDF
  binding: binds

B3: Dis3 (enzyme, UniProt Q9Y2L1 1-958)
chain: MLKSKTFLKKTRAGGVMKIVREHYLRDDIGCGAPGCAACGGAHEGPALEPQPQDPASSVCPQPHYLLPDTNVLLHQIDVLEDPAIRNVIVLQTVLQEVRNRSAPVYKRIRDVTNNQEKHFYTFTNEHHRETYVEQEQGENANDRNDRAIRVAAKWYNEHLKKMSADNQLQVIFITNDRRNKEKAIEEGIPAFTCEEYVKSLTANPELIDRLACLSEEGNEIESGKIIFSEHLPLSKLQQGIKSGTYLQGTFRASRENYLEATVWIHGDNEENKEIILQGLKHLNRAVHEDIVAVELLPKSQWVAPSSVVLHDEGQNEEDVEKEEETERMLKTAVSEKMLKPTGRVVGIIKRNWRPYCGMLSKSDIKESRRHLFTPADKRIPRIRIETRQASTLEGRRIIVAIDGWPRNSRYPNGHFVRNLGDVGEKETETEVLLLEHDVPHQPFSQAVLSFLPKMPWSITEKDMKNREDLRHLCICSVDPPGCTDIDDALHCRELENGNLEVGVHIADVSHFIRPGNALDQESARRGTTVYLCEKRIDMVPELLSSNLCSLKCDVDRLAFSCIWEMNHNAEILKTKFTKSVINSKASLTYAEAQLRIDSANMNDDITTSLRGLNKLAKILKKRRIEKGALTLSSPEVRFHMDSETHDPIDLQTKELRETNSMVEEFMLLANISVAKKIHEEFSEHALLRKHPAPPPSNYEILVKAARSRNLEIKTDTAKSLAESLDQAESPTFPYLNTLLRILATRCMMQAVYFCSGMDNDFHHYGLASPIYTHFTSPIRRYADVIVHRLLAVAIGADCTYPELTDKHKLADICKNLNFRHKMAQYAQRASVAFHTQLFFKSKGIVSEEAYILFVRKNAIVVLIPKYGLEGTVFFEEKDKPNPQLIYDDEIPSLKIEDTVFHVFDKVKVKIMLDSSNLQHQKIRMSLVEPQIPGISIPTDTSNMDLNGPKKKKMKLGK
  binding: no binding
